For two molecules, binding results are on record in PMC8410936.

For experiment [1], the target named is T1, PapD chaperone with His-tag (uropathogenic Escherichia coli) (UniProt P15319).
T1 sequence: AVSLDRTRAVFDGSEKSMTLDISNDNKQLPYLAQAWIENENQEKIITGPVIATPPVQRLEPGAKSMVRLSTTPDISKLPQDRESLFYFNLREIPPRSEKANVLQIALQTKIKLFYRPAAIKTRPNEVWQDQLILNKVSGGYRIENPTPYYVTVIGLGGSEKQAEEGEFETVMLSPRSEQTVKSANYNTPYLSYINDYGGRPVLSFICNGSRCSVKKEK
The experiment in a line: isolation of assembly intermediates from bacteria; complexes formed in bacteria and isolated; no data shown, details not told.

Experiment [2] has as its target T2, PapC usher (uropathogenic Escherichia coli) (UniProt P07110).
T2 sequence: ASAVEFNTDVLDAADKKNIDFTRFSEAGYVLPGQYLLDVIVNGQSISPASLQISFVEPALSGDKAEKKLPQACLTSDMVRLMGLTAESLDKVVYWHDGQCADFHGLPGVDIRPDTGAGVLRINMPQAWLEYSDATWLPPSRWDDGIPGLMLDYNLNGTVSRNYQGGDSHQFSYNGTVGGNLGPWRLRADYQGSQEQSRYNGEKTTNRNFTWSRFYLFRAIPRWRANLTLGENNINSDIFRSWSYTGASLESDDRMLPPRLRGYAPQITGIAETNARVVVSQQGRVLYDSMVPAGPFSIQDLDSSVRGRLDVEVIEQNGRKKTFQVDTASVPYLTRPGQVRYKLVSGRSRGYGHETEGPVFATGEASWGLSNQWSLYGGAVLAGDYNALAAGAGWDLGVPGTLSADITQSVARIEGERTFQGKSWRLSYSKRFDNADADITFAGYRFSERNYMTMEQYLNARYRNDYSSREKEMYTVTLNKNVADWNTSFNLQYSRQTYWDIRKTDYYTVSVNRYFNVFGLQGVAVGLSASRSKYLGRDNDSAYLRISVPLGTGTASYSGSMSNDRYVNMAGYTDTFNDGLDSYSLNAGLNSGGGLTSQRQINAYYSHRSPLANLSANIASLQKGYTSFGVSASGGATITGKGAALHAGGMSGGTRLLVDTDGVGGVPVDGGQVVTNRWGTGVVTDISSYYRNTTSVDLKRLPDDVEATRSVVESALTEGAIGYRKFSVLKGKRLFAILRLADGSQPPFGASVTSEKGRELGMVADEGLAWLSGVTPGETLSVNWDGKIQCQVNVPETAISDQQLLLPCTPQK
The experiment is described as follows: cryo-EM structure; ∆EF complex PapCDHisK_(F-NTE)G made in vivo, purified from the outer membrane by the His-tag on PapD, 25 mM Tris-HCl pH 8.0, 120 mM NaCl, 0.1% DDM; Conformer II at 3.8 Å and Conformer III at 7.2 Å from one dataset.

For experiment [3], the target named is T2, PapC usher (uropathogenic Escherichia coli). The experiment in a line: cryo-EM structure; ∆E complex PapCDHisK_(E-NTE)FG made in vivo, purified from the outer membrane by the His-tag on PapD, 25 mM Tris-HCl pH 8.0, 120 mM NaCl, 0.1% DDM; Conformer I, 7.6 Å.
Experiment [4] deals with PapG adhesin (uropathogenic Escherichia coli). The experiment is described as above.

Results are given in words; binding and its absence hold for the method and conditions named. Binding can be weak; no strength is given. For some of these results: Sequences can lack the tags named with a protein.

Regarding “PapG adhesin (uropathogenic Escherichia coli)”, the binding entry in experiment [1], in experiment [2] and in experiment [3] was “binds” in each case.

B1: PapF (protein, UniProt P08408 19-167)
chain: ADVQINIRGNVYIPPCTINNGQNIVVDFGNINPEHVDNSRGEVTKTISISCPYKSGSLWIKVTGNTMGGGQNNVLATNITHFGIALYQGKGMSTPLILGNGSGNGYGVTAGLDTARSTFTFTSVPFRNGSGILNGGDFQTTASMSMIYN
On to B1, for which the binding entry in experiment [4] was “binds”.
